pIC50: −log10 of the molar value. At least one compound was matched to its structure with a doubt left.
Tests used:
[1] = system: NE (synaptosomal norepinephrine uptake); assay: inhibition of synaptosomal uptake of norepinephrine (3H-NE); type: biochemical; settings: synaptosomal 3H-NE uptake; read-out: Neuronal Uptake NE IC50
[2] = system: 5HT (synaptosomal serotonin uptake); assay: inhibition of synaptosomal uptake of serotonin (14C-5-HT); type: biochemical; settings: synaptosomal 14C-5-HT uptake; read-out: Neuronal Uptake 5HT IC50

SMILES: COc1ccc(C(=CCN2CCN(Cc3ccccc3)CC2)C2(O)CCCCC2)cc1 [Example 2, 1-[1-(4-methoxyphenyl)-3-[4-(phenylmethyl)-1-piperazinyl]-1-propenyl]cyclohexanol]
- pIC50 [1]: 5.90
- pIC50 [2]: 5.50
